# Values quoted from earlier work as cited in patent publication US20020040203A1, “Method for transdermal or intradermal delivery of molecules” (priority 2000, published 2002).
# At least one compound was matched to its structure with a doubt left.
# Conditions: pH 8 stated for PP-IX; cited from earlier work
smiles,measurement,value
"C=CC1=C(C)c2cc3[nH]c(cc4nc(cc5[nH]c(cc1n2)c(C)c5CCC(=O)O)C(CCC(=O)O)=C4C)c(C)c3C=C [PP-IX, protoporphyrin IX]",charge,negatively charged
